Assay results reported in patent publication US20230365577A1, “Photodynamic Therapy and Diagnosis” (RMW CHO Group Limited, priority 2020, published 2023).

Tested on: SKOV3 ovarian cancer cells
Assay: Phototoxicity in SKOV3 cells (652 nm laser, AlamarBlue viability)
Assay type: cell-based, Human
Settings: calculated using phototoxicity IC90 vs dark toxicity IC10, SKOV3
Procedure: Human ovarian cancer cell line SKOV3 (ATCC #HTB-77) was maintained in Dulbecco's Modified Eagle Medium/Nutrient Mixture F-12 (DMEM/F-12), supplemented with 10% v/v Fetal Bovine Serum, 100 U/mL penicillin and 100 µg/mL streptomycin. Monolayer cultures were grown in a humidified incubator at 37° C. with 5% CO2.
For in vitro experiments, photosensitizers (stock solution 5.5 mM in 100% DMSO) were diluted in cell culture media (Dulbecco's Modified Eagle Medium/Nutrient Mixture F-12) supplemented with 10% v/v Fetal Bovine Serum, 100 U/mL penicillin, 100 µg/mL streptomycin and 10% w/v Kollidon-12. Once cells had reached ˜80% confluence, spent media was replaced with media containing photosensitizer and cells were incubated for the desired period of time to allow photosensitizer uptake.
SKOV3 cells were seeded in 96-well black wall plates (Greiner #655090) at a cell density of 5000 cells in 100 μl culture medium per well. On reaching ˜60% confluence, so media was aspirated and replaced with fresh media containing the relevant phyllochlorin analogue from 0-100 μM in DMSO. Cells were incubated for a further 24 hours, allowing uptake of phyllochlorin analogues.
To test for phototoxicity, cells incubated with phyllochlorin analogues (0-10 μM in DMSO) had culture media replaced after 24 hours (as above) and were then exposed to a 652 nm laser (Invion) with laser density at 50 mW/cm^2 for 5 mins (total 15 J/cm^2). Following activation, cells were cultured for a further 24 hours. Media was then replaced with fresh media containing AlamarBlue, and % viable cells remaining assessed as above. Controls included cells treated with phyllochlorin analogues but not activated by laser light; cells without phyllochlorin analogue treatment but with laser light; and untreated controls. All measurements were made in quadruplicate.
For comparative purposes, phyllochlorin analogues were tested and compared against both chlorin e4 disodium and Talaporfin sodium, a clinically approved photosensitizer used in the photodynamic treatment of lung cancers. Phototoxicity IC90 values and dark toxicity IC10 values were calculated using a log[inhibitor]-vs normalized response dose curve with variable slope, using the formula Y=100/(1+(IC90/X)^HillSlope (phototoxicity IC90) or Y=100/(1+(IC10/X)^HillSlope (dark toxicity IC10).

Compound	Therapeutic Index	Therapeutic Index (potassium salt)
C=Cc1c(C)c2cc3nc(c(C)c4cc(C)c(cc5nc(cc1[nH]2)C(C)=C5CC)[nH]4)[C@@H](CCC(=O)NCCOCCO[C@@H]1O[C@H](CO)[C@@H](O)[C@H](O)[C@H]1O)[C@@H]3C [Compound 20, 3-((7S,8S)-18-ethyl-2,5,8,12,17-pentamethyl-13-vinyl-7H,8H-porphyrin-7-yl)-N-(2-(2-(((2R,3R,4S,5S,6R)-3,4,5-trihydroxy-6-(hydroxymethyl)tetrahydro-2H-pyran-2-yl)oxy)ethoxy)ethyl)propanamide]	201.00	
3-((7S,8S)-18-ethyl-2,5,8,12,17-pentamethyl-13-vinyl-7H,8H-porphyrin-7-yl)-N-(2-(2-hydroxyethoxy)ethyl)-N-methylpropanamide zinc complex [Compound 21]	1.71	
C=Cc1c(C)c2cc3nc(c(C)c4cc(C)c(cc5nc(cc1[nH]2)C(C)=C5CC)[nH]4)[C@@H](CCC(=O)N(C)CCCS[C@H]1O[C@H](CO)[C@@H](O)[C@H](O)[C@@H]1O)[C@@H]3C [Compound 16, phyllochlorin α-D-1-thiomannose-N-methylpropylamide conjugate]	114.56	
C=Cc1c(C)c2cc3nc(c(CC(=O)N[C@@H](CC(=O)O)C(=O)O)c4[nH]c(cc5nc(cc1[nH]2)C(C)=C5CC)c(C)c4C(=O)O)[C@@H](CCC(=O)O)[C@@H]3C [Talaporfin sodium, mono-L-aspartyl chlorin e6, reference compound]	0.49	
C=Cc1c(C)c2cc3nc(c(C)c4cc(C)c(cc5nc(cc1[nH]2)C(C)=C5CC)[nH]4)[C@@H](CCC(=O)NCCCS[C@@H]1O[C@H](CO)[C@@H](O)[C@H](O)[C@H]1O)[C@@H]3C [Compound 3, 3-((7S,8S)-18-ethyl-2,5,8,12,17-pentamethyl-13-vinyl-7H,8H-porphyrin-7-yl)-N-(3-(((2S,3R,4S,5S,6R)-3,4,5-trihydroxy-6-(hydroxymethyl)tetrahydro-2H-pyran-2-yl)thio)propyl)propanamide]	258.25	
C=Cc1c(C)c2cc3nc(c(C)c4cc(C)c(cc5nc(cc1[nH]2)C(C)=C5CC)[nH]4)[C@@H](CCC(=O)N(C)CCOCCO)[C@@H]3C [Compound 18, 3-((7S,8S)-18-ethyl-2,5,8,12,17-pentamethyl-13-vinyl-7H,8H-porphyrin-7-yl)-N-(2-(2-hydroxyethoxy)ethyl)-N-methylpropanamide]	323.00	
C=Cc1c(C)c2cc3nc(c(C)c4cc(C)c(cc5nc(cc1[nH]2)C(C)=C5CC)[nH]4)[C@@H](CCC(=O)O)[C@@H]3C [Compound 1a, phyllochlorin potassium salt]		26.40
C=Cc1c(C)c2cc3nc(c(C)c4cc(C)c(cc5nc(cc1[nH]2)C(C)=C5CC)[nH]4)[C@@H](CCC(=O)N(C)CCC[S+]([O-])[C@@H]1O[C@H](CO)[C@@H](O)[C@H](O)[C@H]1O)[C@@H]3C (stereo partly drawn) [Compound 9, 3-((7S,8S)-18-ethyl-2,5,8,12,17-pentamethyl-13-vinyl-7H,8H-porphyrin-7-yl)-N-methyl-N-(3-(((2S,3R,4S,5S,6R)-3,4,5-trihydroxy-6-(hydroxymethyl)tetrahydro-2H-pyran-2-yl)thio)propyl)propanamide sulphoxide]	369.68	
C=Cc1c(C)c2cc3nc(c(C)c4cc(C)c(cc5nc(cc1[nH]2)C(C)=C5CC)[nH]4)[C@@H](CCC(=O)N(C)CCCS[C@@H]1O[C@H](COC(C)=O)[C@@H](OC(C)=O)[C@H](OC(C)=O)[C@H]1OC(C)=O)[C@@H]3C [Compound 11, (2R,3R,4S,5R,6S)-2-(acetoxymethyl)-6-((3-(3-((7S,8S)-18-ethyl-2,5,8,12,17-pentamethyl-13-vinyl-7H,8H-porphyrin-7-yl)-N-methylpropanamido)propyl)thio)tetrahydro-2H-pyran-3,4,5-triyl triacetate]	58.00	
C=Cc1c(C)c2cc3nc(c(C)c4cc(C)c(cc5nc(cc1[nH]2)C(C)=C5CC)[nH]4)[C@@H](CCC(=O)O)[C@@H]3C [Compound 1c, phyllochlorin choline salt]	276.24	
C=Cc1c(C)c2cc3nc(c(C)c4cc(C)c(cc5nc(cc1[nH]2)C(C)=C5CC)[nH]4)[C@@H](CCC(=O)N(C)CCCO)[C@@H]3C [Compound 5, 3-((7S,8S)-18-ethyl-2,5,8,12,17-pentamethyl-13-vinyl-7H,8H-porphyrin-7-yl)-N-(3-hydroxypropyl)-N-methylpropanamide]	416.40	
3-((7S,8S)-18-ethyl-2,5,8,12,17-pentamethyl-13-vinyl-7H,8H-porphyrin-7-yl)-N-methyl-N-(3-(((2S,3R,4S,5S,6R)-3,4,5-trihydroxy-6-(hydroxymethyl)tetrahydro-2H-pyran-2-yl)thio)propyl)propanamide zinc complex [Compound 19]	1.57	
C=Cc1c(C)c2cc3nc(c(C)c4[nH]c(cc5nc(cc1[nH]2)C(C)=C5CC)c(C)c4C(=O)O)[C@@H](CCC(=O)O)[C@@H]3C [Chlorin e4 disodium, chlorin e4 disodium, reference compound]	1.89	
C=Cc1c(C)c2cc3nc(c(C)c4cc(C)c(cc5nc(cc1[nH]2)C(C)=C5CC)[nH]4)[C@@H](CCC(=O)O)[C@@H]3C [Compound 1d, phyllochlorin arginine salt]	12.78	
C=Cc1c(C)c2cc3nc(c(C)c4cc(C)c(cc5nc(cc1[nH]2)C(C)=C5CC)[nH]4)[C@@H](CCC(=O)N(C)CCCCCO)[C@@H]3C [Compound 7, 3-((7S,8S)-18-ethyl-2,5,8,12,17-pentamethyl-13-vinyl-7H,8H-porphyrin-7-yl)-N-(5-hydroxypentyl)-N-methylpropanamide]	285.40	
C=Cc1c(C)c2cc3nc(c(C)c4cc(C)c(cc5nc(cc1[nH]2)C(C)=C5CC)[nH]4)[C@@H](CCC(=O)N(C)CCOCCOCCO)[C@@H]3C [Compound 4, 3-((7S,8S)-18-ethyl-2,5,8,12,17-pentamethyl-13-vinyl-7H,8H-porphyrin-7-yl)-N-(2-(2-(2-hydroxyethoxy)ethoxy)ethyl)-N-methylpropanamide]	136.75	
C=CC1=C(C)c2cc3nc(c(C)c4cc(C)c(cc5[nH]c(cc1n2)c(C)c5CC)[nH]4)[C@@H](CCC(=O)O)[C@@H]3C [Phyllochlorin free acid, phyllochlorin free acid]	47.62	
C=Cc1c(C)c2cc3nc(c(C)c4cc(C)c(cc5nc(cc1[nH]2)C(C)=C5CC)[nH]4)[C@@H](CCC(=O)N(C)CCCO[C@@H]1O[C@H](CO)[C@@H](O)[C@H](O)[C@H]1O)[C@@H]3C [Compound 15, 3-((7S,8S)-18-ethyl-2,5,8,12,17-pentamethyl-13-vinyl-7H,8H-porphyrin-7-yl)-N-methyl-N-(3-(((2R,3R,4S,5S,6R)-3,4,5-trihydroxy-6-(hydroxymethyl)tetrahydro-2H-pyran-2-yl)oxy)propyl)propanamide]	63.48	
C=Cc1c(C)c2cc3nc(c(C)c4cc(C)c(cc5nc(cc1[nH]2)C(C)=C5CC)[nH]4)[C@@H](CCC(=O)N[C@H]1C(O)O[C@H](CO)[C@@H](O)[C@@H]1O)[C@@H]3C (stereo partly shown) [Compound 13, phyllochlorin 2-deoxyglucosamine-propylamide]	108.50	

Where a name gives a salt, the structure may show the parent alone.
